Results are given in words; binding and its absence hold for the method and conditions named. Binding seen in cells or lysates may run through a third protein. A yes stands for co-enrichment or nearness to the bait. Other partners may have been found. For some assays here: Tags and fused reporters may be left off the sequences shown.
T1: constitutively active ARL14 (Q68L)–BirA*–Flag (human) (UniProt Q8N4G2)
T1 sequence: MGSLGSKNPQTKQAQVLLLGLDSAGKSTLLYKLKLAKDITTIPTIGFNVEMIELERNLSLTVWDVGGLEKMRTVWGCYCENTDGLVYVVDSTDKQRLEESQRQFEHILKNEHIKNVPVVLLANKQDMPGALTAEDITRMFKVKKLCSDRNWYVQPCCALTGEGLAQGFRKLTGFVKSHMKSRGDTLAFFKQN

Sequences of proteins named here, by UniProt entry; tags and fusion partners are left off. A change or cut given only in a name is not applied to a line headed by its entry. Residues count along the entry.
UniProt P84077: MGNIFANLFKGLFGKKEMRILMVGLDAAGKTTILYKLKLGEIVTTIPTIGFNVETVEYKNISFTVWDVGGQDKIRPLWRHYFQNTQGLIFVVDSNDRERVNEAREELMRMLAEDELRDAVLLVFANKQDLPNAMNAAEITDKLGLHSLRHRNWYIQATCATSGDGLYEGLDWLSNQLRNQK
UniProt Q15836: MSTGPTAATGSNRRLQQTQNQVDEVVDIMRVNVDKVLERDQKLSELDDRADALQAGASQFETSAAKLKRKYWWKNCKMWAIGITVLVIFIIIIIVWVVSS
UniProt Q14789: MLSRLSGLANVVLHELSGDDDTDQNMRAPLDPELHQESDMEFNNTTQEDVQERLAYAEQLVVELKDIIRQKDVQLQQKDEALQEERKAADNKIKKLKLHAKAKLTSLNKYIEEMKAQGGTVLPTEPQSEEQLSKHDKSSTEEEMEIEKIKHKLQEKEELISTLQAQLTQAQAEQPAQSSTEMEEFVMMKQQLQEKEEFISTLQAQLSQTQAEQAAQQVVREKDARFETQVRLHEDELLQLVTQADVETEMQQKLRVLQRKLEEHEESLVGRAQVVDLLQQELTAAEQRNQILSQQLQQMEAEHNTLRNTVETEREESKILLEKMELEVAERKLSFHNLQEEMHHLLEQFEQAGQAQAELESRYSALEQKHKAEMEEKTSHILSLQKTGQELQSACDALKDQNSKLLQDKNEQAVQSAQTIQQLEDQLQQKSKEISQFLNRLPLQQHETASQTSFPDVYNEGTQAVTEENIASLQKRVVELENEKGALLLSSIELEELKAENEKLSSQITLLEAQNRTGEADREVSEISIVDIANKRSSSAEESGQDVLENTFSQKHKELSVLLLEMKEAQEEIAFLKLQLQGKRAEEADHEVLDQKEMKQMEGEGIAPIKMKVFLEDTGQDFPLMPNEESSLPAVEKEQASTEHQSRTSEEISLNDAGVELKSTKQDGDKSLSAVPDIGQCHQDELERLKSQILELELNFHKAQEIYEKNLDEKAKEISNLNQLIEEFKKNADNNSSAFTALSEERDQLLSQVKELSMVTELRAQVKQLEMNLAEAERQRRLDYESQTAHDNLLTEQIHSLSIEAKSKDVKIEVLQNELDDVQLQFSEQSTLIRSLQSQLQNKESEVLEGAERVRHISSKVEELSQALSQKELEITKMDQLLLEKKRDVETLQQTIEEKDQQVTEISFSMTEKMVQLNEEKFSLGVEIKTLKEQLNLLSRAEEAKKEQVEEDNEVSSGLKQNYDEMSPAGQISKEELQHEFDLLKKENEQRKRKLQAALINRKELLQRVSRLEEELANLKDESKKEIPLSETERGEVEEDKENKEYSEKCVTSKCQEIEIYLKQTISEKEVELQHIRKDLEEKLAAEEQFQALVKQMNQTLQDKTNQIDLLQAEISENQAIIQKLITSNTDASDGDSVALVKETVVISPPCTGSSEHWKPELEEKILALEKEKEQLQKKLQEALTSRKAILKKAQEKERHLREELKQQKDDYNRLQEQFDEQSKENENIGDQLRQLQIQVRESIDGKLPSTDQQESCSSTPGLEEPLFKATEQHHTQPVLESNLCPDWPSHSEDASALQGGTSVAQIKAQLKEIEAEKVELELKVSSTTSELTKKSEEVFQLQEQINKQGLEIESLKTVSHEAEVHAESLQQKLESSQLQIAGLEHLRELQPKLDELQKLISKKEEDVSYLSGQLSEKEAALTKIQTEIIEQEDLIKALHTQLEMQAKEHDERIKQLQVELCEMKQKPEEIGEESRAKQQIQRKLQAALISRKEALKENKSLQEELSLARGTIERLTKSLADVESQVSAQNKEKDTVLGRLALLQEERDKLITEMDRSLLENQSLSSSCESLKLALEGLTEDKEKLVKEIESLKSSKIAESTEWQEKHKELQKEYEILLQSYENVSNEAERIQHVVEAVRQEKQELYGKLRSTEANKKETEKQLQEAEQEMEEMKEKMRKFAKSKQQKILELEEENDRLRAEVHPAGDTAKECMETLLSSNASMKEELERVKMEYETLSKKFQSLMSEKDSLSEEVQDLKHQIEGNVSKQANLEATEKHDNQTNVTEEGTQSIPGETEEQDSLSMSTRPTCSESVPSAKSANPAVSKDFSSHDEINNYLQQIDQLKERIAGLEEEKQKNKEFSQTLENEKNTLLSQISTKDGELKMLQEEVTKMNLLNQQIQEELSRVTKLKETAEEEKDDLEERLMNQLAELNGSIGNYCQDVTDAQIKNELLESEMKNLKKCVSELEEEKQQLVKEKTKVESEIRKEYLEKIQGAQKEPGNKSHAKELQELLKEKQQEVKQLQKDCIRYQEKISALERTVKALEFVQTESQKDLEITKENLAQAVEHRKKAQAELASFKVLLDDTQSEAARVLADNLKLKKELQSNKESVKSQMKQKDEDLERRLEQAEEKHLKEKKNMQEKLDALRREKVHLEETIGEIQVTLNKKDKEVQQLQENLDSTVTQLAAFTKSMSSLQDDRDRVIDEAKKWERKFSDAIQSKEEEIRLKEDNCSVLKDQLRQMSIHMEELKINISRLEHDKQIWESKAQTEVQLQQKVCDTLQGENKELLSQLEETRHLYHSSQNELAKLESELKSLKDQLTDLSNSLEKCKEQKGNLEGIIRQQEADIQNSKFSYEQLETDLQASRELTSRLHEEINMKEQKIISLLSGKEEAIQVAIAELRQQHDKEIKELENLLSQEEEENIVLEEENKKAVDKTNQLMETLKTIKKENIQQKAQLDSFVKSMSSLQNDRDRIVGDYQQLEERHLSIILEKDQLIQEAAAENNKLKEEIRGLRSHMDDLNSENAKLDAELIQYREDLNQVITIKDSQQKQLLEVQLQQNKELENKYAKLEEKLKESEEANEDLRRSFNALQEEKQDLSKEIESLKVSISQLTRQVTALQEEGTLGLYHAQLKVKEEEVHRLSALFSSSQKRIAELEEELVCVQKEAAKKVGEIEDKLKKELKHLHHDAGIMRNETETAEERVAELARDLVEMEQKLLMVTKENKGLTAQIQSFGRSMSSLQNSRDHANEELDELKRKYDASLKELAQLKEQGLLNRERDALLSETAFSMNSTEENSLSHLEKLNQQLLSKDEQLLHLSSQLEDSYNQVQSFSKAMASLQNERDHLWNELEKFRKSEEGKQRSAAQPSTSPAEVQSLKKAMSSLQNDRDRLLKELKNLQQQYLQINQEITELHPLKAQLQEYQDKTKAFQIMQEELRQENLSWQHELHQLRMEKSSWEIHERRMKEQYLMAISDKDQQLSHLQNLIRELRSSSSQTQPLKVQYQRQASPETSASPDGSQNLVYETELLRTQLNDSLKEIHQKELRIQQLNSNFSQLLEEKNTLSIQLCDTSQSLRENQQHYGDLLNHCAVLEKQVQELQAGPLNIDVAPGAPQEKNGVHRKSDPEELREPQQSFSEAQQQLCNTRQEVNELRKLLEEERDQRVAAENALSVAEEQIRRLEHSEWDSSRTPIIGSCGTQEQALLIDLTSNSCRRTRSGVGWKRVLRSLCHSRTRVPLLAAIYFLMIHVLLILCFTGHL
UniProt Q9NP61: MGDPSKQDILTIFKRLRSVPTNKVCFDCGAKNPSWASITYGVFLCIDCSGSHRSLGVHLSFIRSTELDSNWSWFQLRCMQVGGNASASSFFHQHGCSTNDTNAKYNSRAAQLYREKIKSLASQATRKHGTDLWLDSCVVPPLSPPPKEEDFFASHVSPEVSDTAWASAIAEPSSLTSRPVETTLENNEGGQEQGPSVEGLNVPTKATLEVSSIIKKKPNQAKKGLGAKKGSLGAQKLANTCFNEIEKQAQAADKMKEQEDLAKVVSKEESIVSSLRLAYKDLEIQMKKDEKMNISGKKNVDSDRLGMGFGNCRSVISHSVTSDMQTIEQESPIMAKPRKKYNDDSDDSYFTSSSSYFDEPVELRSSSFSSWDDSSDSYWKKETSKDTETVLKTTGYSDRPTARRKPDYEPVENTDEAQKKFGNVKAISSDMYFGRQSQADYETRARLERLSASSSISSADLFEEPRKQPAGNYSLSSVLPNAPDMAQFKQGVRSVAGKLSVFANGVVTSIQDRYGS
UniProt Q8N6H7: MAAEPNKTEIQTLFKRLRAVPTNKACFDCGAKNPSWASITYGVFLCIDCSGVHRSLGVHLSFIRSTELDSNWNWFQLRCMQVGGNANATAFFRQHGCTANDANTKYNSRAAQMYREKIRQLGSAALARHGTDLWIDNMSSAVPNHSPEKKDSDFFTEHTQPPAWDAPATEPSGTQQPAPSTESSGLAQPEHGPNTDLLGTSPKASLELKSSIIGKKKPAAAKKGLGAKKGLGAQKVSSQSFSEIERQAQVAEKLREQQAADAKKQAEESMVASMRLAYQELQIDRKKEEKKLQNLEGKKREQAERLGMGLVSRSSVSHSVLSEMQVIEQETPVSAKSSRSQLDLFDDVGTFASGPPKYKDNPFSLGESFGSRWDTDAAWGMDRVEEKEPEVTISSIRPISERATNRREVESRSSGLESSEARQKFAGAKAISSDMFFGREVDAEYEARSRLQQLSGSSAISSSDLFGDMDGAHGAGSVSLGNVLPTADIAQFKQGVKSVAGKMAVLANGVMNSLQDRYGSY
UniProt Q5JRA6, residues 23-1907: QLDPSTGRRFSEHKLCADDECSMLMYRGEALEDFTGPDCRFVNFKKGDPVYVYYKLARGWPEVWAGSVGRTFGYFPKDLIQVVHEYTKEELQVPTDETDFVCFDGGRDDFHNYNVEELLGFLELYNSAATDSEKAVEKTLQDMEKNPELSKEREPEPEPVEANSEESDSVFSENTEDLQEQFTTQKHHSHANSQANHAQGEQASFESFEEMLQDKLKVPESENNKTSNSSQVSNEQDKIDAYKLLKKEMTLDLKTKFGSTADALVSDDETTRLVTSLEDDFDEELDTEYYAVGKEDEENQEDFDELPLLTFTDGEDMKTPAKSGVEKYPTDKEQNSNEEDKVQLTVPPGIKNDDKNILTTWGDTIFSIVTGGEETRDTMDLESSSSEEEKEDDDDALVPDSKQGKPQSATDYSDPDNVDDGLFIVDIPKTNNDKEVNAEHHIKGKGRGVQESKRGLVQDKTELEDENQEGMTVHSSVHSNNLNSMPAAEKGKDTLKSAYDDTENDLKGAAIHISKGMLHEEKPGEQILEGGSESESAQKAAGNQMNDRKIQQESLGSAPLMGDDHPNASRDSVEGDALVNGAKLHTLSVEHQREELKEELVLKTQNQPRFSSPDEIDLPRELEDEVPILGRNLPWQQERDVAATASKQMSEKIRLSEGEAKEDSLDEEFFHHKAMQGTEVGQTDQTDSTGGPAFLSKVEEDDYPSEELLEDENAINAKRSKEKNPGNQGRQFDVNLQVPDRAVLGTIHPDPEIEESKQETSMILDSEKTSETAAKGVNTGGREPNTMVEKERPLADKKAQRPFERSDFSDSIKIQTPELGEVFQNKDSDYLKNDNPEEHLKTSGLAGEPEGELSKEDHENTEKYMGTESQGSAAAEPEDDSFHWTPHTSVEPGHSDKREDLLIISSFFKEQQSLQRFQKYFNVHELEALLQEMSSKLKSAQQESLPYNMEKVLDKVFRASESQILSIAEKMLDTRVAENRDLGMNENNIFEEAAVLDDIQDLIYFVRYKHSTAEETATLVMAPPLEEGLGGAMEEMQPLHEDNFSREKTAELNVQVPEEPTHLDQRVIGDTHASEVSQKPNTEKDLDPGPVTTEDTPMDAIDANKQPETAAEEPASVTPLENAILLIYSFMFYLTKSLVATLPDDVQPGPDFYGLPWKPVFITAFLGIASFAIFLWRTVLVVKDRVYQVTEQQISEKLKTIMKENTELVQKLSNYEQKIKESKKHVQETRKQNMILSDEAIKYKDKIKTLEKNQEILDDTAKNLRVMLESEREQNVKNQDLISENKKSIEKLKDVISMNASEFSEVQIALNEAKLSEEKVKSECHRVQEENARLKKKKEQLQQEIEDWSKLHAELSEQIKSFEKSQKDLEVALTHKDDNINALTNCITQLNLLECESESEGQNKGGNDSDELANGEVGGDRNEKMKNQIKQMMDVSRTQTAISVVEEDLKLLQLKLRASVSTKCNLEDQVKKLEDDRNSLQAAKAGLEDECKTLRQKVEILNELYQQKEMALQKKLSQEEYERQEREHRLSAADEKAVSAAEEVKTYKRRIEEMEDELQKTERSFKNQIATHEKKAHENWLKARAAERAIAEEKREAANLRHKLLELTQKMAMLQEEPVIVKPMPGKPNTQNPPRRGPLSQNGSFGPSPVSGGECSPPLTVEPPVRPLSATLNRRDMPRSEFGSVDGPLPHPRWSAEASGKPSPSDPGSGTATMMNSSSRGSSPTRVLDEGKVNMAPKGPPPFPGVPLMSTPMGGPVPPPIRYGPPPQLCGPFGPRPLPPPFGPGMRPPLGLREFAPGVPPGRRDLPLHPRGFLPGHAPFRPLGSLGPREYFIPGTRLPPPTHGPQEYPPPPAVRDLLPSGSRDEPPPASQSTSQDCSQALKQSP

B1: GOLGA3 (protein, UniProt Q08378 1-1498)
chain: MDGASAEQDGLQEDRSHSGPSSLPEAPLKPPGPLVPPDQQDKVQCAEVNRASTEGESPDGPGQGGLCQNGPTPPFPDPPSSLDPTTSPVGPDASPGVAGFHDNLRKSQGTSAEGSVRKEALQSLRLSLPMQETQLCSTDSPLPLEKEEQVRLQARKWLEEQLKQYRVKRQQERSSQPATKTRLFSTLDPELMLNPENLPRASTLAMTKEYSFLRTSVPRGPKVGSLGLPAHPREKKTSKSSKIRSLADYRTEDSNAGNSGGNVPAPDSTKGSLKQNRSSAASVVSEISLSPDTDDRLENTSLAGDSVSEVDGNDSDSSSYSSASTRGTYGILSKTVGTQDTPYMVNGQEIPADTLGQFPSIKDVLQAAAAEHQDQGQEVNGEVRSRRDSICSSVSLESSAAETQEEMLQVLKEKMRLEGQLEALSLEASQALKEKAELQAQLAALSTKLQAQVECSHSSQQRQDSLSSEVDTLKQSCWDLERAMTDLQNMLEAKNASLASSNNDLQVAEEQYQRLMAKVEDMQRSMLSKDNTVHDLRQQMTALQSQLQQVQLERTTLTSKLKASQAEISSLQSVRQWYQQQLALAQEARVRLQGEMAHIQVGQMTQAGLLEHLKLENVSLSQQLTETQHRSMKEKGRIAAQLQGIEADMLDQEAAFMQIQEAKTMVEEDLQRRLEEFEGERERLQRMADSAASLEQQLEQVKLTLLQRDQQLEALQQEHLDLMKQLTLTQEALQSREQSLDALQTHYDELQARLGELQGEAASREDTICLLQNEKIILEAALQAAKSGKEELDRGARRLEEGTEETSETLEKLREELAIKSGQVEHLQQETAALKKQMQKIKEQFLQQKVMVEAYRRDATSKDQLISELKATRKRLDSELKELRQELMQVHGEKRTAEAELSRLHREVAQVRQHMADLEGHLQSAQKERDEMETHLQSLQFDKEQMVAVTEANEALKKQIEELQQEARKAITEQKQKMRRLGSDLTSAQKEMKTKHKAYENAVGILSRRLQEALAAKEAADAELGQLRAQGGSSDSSLALHERIQALEAELQAVSHSKTLLEKELQEVIALTSQELEESREKVLELEDELQESRGFRKKIKRLEESNKKLALELEHEKGKLTGLGQSNAALREHNSILETALAKREADLVQLNLQVQAVLQRKEEEDRQMKHLVQALQASLEKEKEKVNSLKEQVAAAKVEAGHNRRHFKAASLELSEVKKELQAKEHLVQKLQAEADDLQIREGKHSQEIAQFQAELAEARAQLQLLQKQLDEQLSKQPVGNQEMENLKWEVDQKEREIQSLKQQLDLTEQQGRKELEGLQQLLQNVKSELEMAQEDLSMTQKDKFMLQAKVSELKNNMKTLLQQNQQLKLDLRRGAAKTRKEPKGEASSSNPATPIKIPDCPVPASLLEELLRPPPAVSKEPLKNLNSCLQQLKQEMDSLQRQMEEHALTVHESLSSWTPLEPATASPVPPGGHAGPRGDPQRHSQSRASKEGPGE
B2: GOLGA5 (protein, UniProt Q8TBA6 1-731)
chain: MSWFVDLAGKAEDLLNRVDQGAATALSRKDNASNIYSKNTDYTELHQQNTDLIYQTGPKSTYISSAADNIRNQKATILAGTANVKVGSRTPVEASHPVENASVPRPSSHFVRRKKSEPDDELLFDFLNSSQKEPTGRVEIRKEKGKTPVFQSSQTSSVSSVNPSVTTIKTIEENSFGSQTHEAASNSDSSHEGQEESSKENVSSNAACPDHTPTPNDDGKSHELSNLRLENQLLRNEVQSLNQEMASLLQRSKETQEELNKARARVEKWNADHSKSDRMTRGLRAQVDDLTEAVAAKDSQLAVLKVRLQEADQLLSTRTEALEALQSEKSRIMQDQSEGNSLQNQALQTFQERLHEADATLKREQESYKQMQSEFAARLNKVEMERQNLAEAITLAERKYSDEKKRVDELQQQVKLYKLNLESSKQELIDYKQKATRILQSKEKLINSLKEGSGFEGLDSSTASSMELEELRHEKEMQREEIQKLMGQIHQLRSELQDMEAQQVNEAESAREQLQDLHDQIAGQKASKQELETELERLKQEFHYIEEDLYRTKNTLQSRIKDRDEEIQKLRNQLTNKTLSNSSQSELENRLHQLTETLIQKQTMLESLSTEKNSLVFQLERLEQQMNSASGSSSNGSSINMSGIDNGEGTRLRNVPVLFNDTETNLAGMYGKVRKAASSIDQFSIRLGIFLRRYPIARVFVIIYMALLHLWVMIVLLTYTPEMHHDQPYGK
B3: VPS50 (protein, UniProt Q96JG6 1-964)
chain: MQKIKSLMTRQGLKSPQESLSDLGAIESLRVPGKEEFRELREQPSDPQAEQELINSIEQVYFSVDSFDIVKYELEKLPPVLNLQELEAYRDKLKQQQAAVSKKVADLILEKQPAYVKELERVTSLQTGLQLAAVICTNGRRHLNIAKEGFTQASLGLLANQRKRQLLIGLLKSLRTIKTLQRTDVRLSEMLEEEDYPGAIQLCLECQKAASTFKHYSCISELNSKLQDTLEQIEEQLDVALSKICKNFDINHYTKVQQAYRLLGKTQTAMDQLHMHFTQAIHNTVFQVVLGYVELCAGNTDTKFQKLQYKDLCTHVTPDSYIPCLADLCKALWEVMLSYYRTMEWHEKHDNEDTASASEGSNMIGTEETNFDRGYIKKKLEHGLTRIWQDVQLKVKTYLLGTDLSIFKYDDFIFVLDIISRLMQVGEEFCGSKSEVLQESIRKQSVNYFKNYHRTRLDELRMFLENETWELCPVKSNFSILQLHEFKFMEQSRSPSVSPSKQPVSTSSKTVTLFEQYCSGGNPFEIQANHKDEETEDVLASNGYESDEQEKSAYQEYDSDSDVPEELKRDYVDEQTGDGPVKSVSRETLKSRKKSDYSLNKVNAPILTNTTLNVIRLVGKYMQMMNILKPIAFDVIHFMSQLFDYYLYAIYTFFGRNDSLESTGLGLSSSRLRTTLNRIQESLIDLEVSADPTATLTAAEERKEKVPSPHLSHLVVLTSGDTLYGLAERVVATESLVFLAEQFEFLQPHLDAVMPAVKKPFLQQFYSQTVSTASELRKPIYWIVAGKALDYEQMLLLMANVKWDVKEIMSQHNIYVDALLKEFEQFNRRLNEVSKRVRIPLPVSNILWEHCIRLANRTIVEGYANVKKCSNEGRALMQLDFQQFLMKLEKLTDIRPIPDKEFVETYIKAYYLTENDMERWIKEHREYSTKQLTNLVNVCLGSHINKKARQKLLAAIDDIDRPKR
B4: VTI1B (protein, UniProt Q9UEU0 1-232)
chain: MASSAASSEHFEKLHEIFRGLHEDLQGVPERLLGTAGTEEKKKLIRDFDEKQQEANETLAEMEEELRYAPLSFRNPMMSKLRNYRKDLAKLHREVRSTPLTATPGGRGDMKYGIYAVENEHMNRLQSQRAMLLQGTESLNRATQSIERSHRIATETDQIGSEIIEELGEQRDQLERTKSRLVNTSENLSKSRKILRSMSRKVTTNKLLLSIIILLELAILGGLVYYKFFRSH
B5: MIA2 (protein, UniProt Q96PC5 20-1412)
chain: LESTKLLADLKKCGDLECEALINRVSAMRDYRGPDCRYLNFTKGEEISVYVKLAGEREDLWAGSKGKEFGYFPRDAVQIEEVFISEEIQMSTKESDFLCLLGVSYTFDNEDSELNGDYGENIYPYEEDKDEKSSIYESDFQIEPGFYATYESTLFEDQVPALEAPEDIGSTSESKDWEEVVVESMEQDRIPEVHVPPSSAVSGVKEWFGLGGEQAEEKAFESVIEPVQESSFRSRKIAVEDENDLEELNNGEPQTEHQQESESEIDSVPKTQSELASESEHIPKPQSTGWFGGGFTSYLGFGDEDTGLELIAEESNPPLQDFPNSISSDKEATVPCTEILTEKKDTITNDSLSLKPSWFDFGFAILGFAYAKEDKIMLDDRKNEEDGGADEHEHPLTSELDPEKEQEIETIKIIETEDQIDKKPVSEKTDESDTIPYLKKFLYNFDNPWNFQNIPKETELPFPKQILDQNNVIENEETGEFSIDNYPTDNTKVMIFKSSYSLSDMVSNIELPTRIHEEVYFEPSSSKDSDENSKPSVDTEGPALVEIDRSVENTLLNSQMVSTDNSLSSQNYISQKEDASEFQILKYLFQIDVYDFMNSAFSPIVILTERVVAALPEGMRPDSNLYGFPWELVICAAVVGFFAVLFFLWRSFRSVRSRLYVGREKKLALMLSGLIEEKSKLLEKFSLVQKEYEGYEVESSLKDASFEKEATEAQSLEATCEKLNRSNSELEDEILCLEKELKEEKSKHSEQDELMADISKRIQSLEDESKSLKSQVAEAKMTFKIFQMNEERLKIAIKDALNENSQLQESQKQLLQEAEVWKEQVSELNKQKVTFEDSKVHAEQVLNDKESHIKTLTERLLKMKDWAAMLGEDITDDDNLELEMNSESENGAYLDNPPKGALKKLIHAAKLNASLKTLEGERNQIYIQLSEVDKTKEELTEHIKNLQTEQASLQSENTHFENENQKLQQKLKVMTELYQENEMKLHRKLTVEENYRLEKEEKLSKVDEKISHATEELETYRKRAKDLEEELERTIHSYQGQIISHEKKAHDNWLAARNAERNLNDLRKENAHNRQKLTETELKFELLEKDPYALDVPNTAFGREHSPYGPSPLGWPSSETRAFLSPPTLLEGPLRLSPLLPGGGGRGSRGPGNPLDHQITNERGESSCDRLTDPHRAPSDTGSLSPPWDQDRRMMFPPPGQSYPDSALPPQRQDRFCSNSGRLSGPAELRSFNMPSLDKMDGSMPSEMESSRNDTKDDLGNLNVPDSSLPAENEATGPGFVPPPLAPIRGPLFPVDARGPFLRRGPPFPPPPPGAMFGASRDYFPPGDFPGPPPAPFAMRNVYPPRGFPPYLPPRPGFFPPPPHSEGRSEFPSGLIPPSNEPATEHPEPQQET
B6: BET1 (protein, UniProt O15155 1-118)
chain: MRRAGLGEGVPPGNYGNYGYANSGYSACEEENERLTESLRSKVTAIKSLSIEIGHEVKTQNKLLAEMDSQFDSTTGFLGKTMGKLKILSRGSQTKLLCYMMLFSLFVFFIIYWIIKLR

Target: constitutively active ARF1 (Q71L)–BirA*–Flag (human) (UniProt P84077)
Experiment: proximity labelling; BioID: constitutively active ARF/ARL bait with C-terminal BirA*–Flag, tetracycline-induced in Flp-In T-REx HEK293 and Flp-In T-REx HeLa cells, 50 µM biotin, 24 h labelling; RIPA lysis, streptavidin beads, on-bead trypsin, MS; SAINT AvgP ≥0.95 with AvgSpec and CAAX-ratio filters

| Molecule | binding |
| --- | --- |
| VAMP3 (from UniProt Q15836 1-100) | binds |
| ARFGAP1 (from UniProt Q8N6T3 1-406) | binds |
| GOLGB1 (from UniProt Q14789 1-3259) | binds |
| ARFGAP3 (from UniProt Q9NP61 1-516) | binds |
| ARFGAP2 (from UniProt Q8N6H7 1-521) | binds |
| ARFGEF2 (from UniProt Q9Y6D5 1-1785) | binds |
| B1 | binds |
| B2 | binds |
| B3 | binds |
| B4 | binds |

Target: T1, constitutively active ARL14 (Q68L)–BirA*–Flag (human)
Experiment: as above

| Molecule | binding |
| --- | --- |
| SNX1 (from UniProt Q13596 1-522) | binds |

Target: constitutively active SAR1B–BirA*–Flag (human) (UniProt Q9Y6B6)
Experiment: as above

| Molecule | binding |
| --- | --- |
| MIA3 (from UniProt Q5JRA6 23-1907) | binds |
| B5 | binds |
| B6 | binds |
